Experimental data: paper PMC13385800 (2026)
These are yes or no findings as the source states them, for the method shown. In cells and extracts the contact can be indirect.

Amino acid sequences for entries named in this document (tags omitted).
UniProt O15379: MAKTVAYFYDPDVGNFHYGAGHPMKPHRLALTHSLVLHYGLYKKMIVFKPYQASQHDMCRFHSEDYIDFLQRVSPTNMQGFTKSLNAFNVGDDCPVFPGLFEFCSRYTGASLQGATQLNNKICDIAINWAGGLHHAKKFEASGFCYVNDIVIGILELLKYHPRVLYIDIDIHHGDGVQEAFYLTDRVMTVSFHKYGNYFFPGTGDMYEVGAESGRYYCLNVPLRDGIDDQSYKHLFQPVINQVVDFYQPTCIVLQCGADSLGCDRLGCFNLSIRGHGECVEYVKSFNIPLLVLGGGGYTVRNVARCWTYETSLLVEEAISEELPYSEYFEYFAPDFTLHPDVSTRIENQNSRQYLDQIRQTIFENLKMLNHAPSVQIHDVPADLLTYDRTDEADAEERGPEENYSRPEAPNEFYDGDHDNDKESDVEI

What was measured:
[1] = biological target: T1, mCherry-SETD5 1–223 (UniProt Q9C0A6); assay: co-IP; GFP trap or RFP trap IP of transfected EGFP- or mCherry-tagged constructs from extracts of Flp-In T-REx 293 lines carrying integrated wild-type or mutant TBLR1; 30-60 min at 4 degrees, four washes in NE10 with 150 mM NaCl; western blot
T1 sequence: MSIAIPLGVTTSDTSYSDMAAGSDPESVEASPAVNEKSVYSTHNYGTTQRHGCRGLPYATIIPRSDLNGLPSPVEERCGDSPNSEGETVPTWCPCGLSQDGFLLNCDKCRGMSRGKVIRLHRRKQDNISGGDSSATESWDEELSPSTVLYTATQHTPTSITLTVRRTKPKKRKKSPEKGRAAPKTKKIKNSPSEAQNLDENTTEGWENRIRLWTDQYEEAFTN

[2] = biological target: T2, mCherry-SETD5 1–486 (UniProt Q9C0A6); assay: as above
T2 sequence: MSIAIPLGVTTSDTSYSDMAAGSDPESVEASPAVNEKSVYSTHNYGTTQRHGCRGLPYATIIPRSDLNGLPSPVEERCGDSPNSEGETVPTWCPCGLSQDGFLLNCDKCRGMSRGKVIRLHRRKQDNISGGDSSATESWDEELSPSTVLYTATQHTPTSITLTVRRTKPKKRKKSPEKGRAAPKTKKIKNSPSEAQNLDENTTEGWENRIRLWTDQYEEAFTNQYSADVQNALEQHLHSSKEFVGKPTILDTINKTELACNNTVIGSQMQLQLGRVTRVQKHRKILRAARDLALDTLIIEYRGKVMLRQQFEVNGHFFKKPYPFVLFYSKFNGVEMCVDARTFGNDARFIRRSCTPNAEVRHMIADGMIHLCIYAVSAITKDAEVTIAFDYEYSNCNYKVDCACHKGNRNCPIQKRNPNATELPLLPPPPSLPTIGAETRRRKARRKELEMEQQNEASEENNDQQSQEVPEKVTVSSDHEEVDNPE

endogenous HDAC3 of Flp-In T-REx 293 cells (from UniProt O15379 1-428)
binding [1]: no binding
binding [2]: no binding
